According to the supplement of paper PMC5949888:
Most values lie at the floor of the assay. Slopes are relative: functional sequences can read slightly below zero.

test system: Saccharomyces cerevisiae PS128 hsf1 delta, HSF1(1-493) fusion; assay: growth estimate (transactivation domain function in HSF1 fusion, heat-shock survival) (a.u. (slope of normalised read count over time)); higher = stronger growth at 37°C, i.e. more transactivation activity; conditions: library: random library
Procedure: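 Random 60-nt DNA library encoding peptides of up to 20 aa, fused to the C-terminus of yeast HSF1 residues 1-493 (C-terminal TAD deleted) and expressed from the native HSF1 promoter on a CEN plasmid in hsf1-deleted S. cerevisiae PS128. Cells were selected at 37°C on -trp 5-FOA plates for 0, 2, 4, 6 and 8 days and amplicons were sequenced. Growth estimate is the slope of a robust linear fit of total-sum-normalised read counts (normalised to the first time point) over time, using at least 2 replicates. Sequences are classed functional (TAD activity) above a threshold of -0.13, set from stop-codon control sequences.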

Substance | growth estimate
AKCGTVNLMTPERVMVVFGS | < -0.25
AKD | < -0.25
AKGARIYRLKFKSV | < -0.25
AKGTPIDWVVPSCDHEPPEN | < -0.25
AKIPKRRPLTLILA | < -0.25
AKKICRGPRRAFFQPWLTSS | < -0.25
AKLQRTDF | < -0.25
AKLSEWRNNGALNLSLPMVS | < -0.25
AKLVFGYADDNVKPEH | -0.182
AKNSASGLDVLVRDTQRGYS | < -0.25
AKQTTQIVFRERCRQAHNPR | < -0.25
AKRCRVRI | < -0.25
AKRNLFFRSCFYITCLCGTR | < -0.25
AKVVLL | < -0.25
AKYQCQRL | < -0.25
ALARPVY | < -0.25
ALE | < -0.25
ALEGSVFSTQYTWQKQGDSY | -0.11
ALES | < -0.25
ALFCTRSHYNV | < -0.25
ALFMEMS | < -0.25
ALGARSQAPNSL | < -0.25
ALGENPEAY | < -0.25
ALGGNSVYNVRCGWNAPALS | < -0.25

Substance | growth estimate
ALGPGVHCN | < -0.25
ALGTSR | < -0.25
ALGWAR | < -0.25
ALIFVYDTTMAYVASIGWFS | < -0.25
ALKKRGEYAVVINDLRQLQP | < -0.25
ALLDRDGITMLVA | < -0.25
ALLGQLWQAPGCFCLNLNTE | < -0.25
ALPDVKRRLLTLRVRCGPLS | < -0.25
ALPRSLIELEVDNFA | < -0.25
ALPSTRGSVSSSLEFECRDW | < -0.25
ALPTAIQVH | < -0.25
ALRGSSNQE | < -0.25
ALRGVFVPRKECKLLHVYHG | < -0.25
ALRKTVAHIGRYEDPHIRQF | < -0.25
ALRRERAQWCMRSTLSFGGC | < -0.25
ALRVMGLGGARY | < -0.25
ALSGMSQWT | < -0.25
ALSN | < -0.25
ALSSTQPEAHDFDPTRLIRH | < -0.25
ALSTGVYLLTTGTMVSRIIV | < -0.25
ALSVTRCGSVRTQGGCWRSQ | < -0.25
ALTAR | < -0.25
ALTQSHLWAIDWRGVYQNRG | < -0.25
ALTSRAHAAPWGERALFVLL | < -0.25

Reprinted at random: 4 entries already listed, in no set order.
Substance | growth estimate
ALSTGVYLLTTGTMVSRIIV | < -0.25
ALIFVYDTTMAYVASIGWFS | < -0.25
ALGWAR | < -0.25
ALTAR | < -0.25

(continued)

Substance | growth estimate
ALTVRNLPSHQDKL | < -0.25
ALVARASPCSSGYCNMKIVT | < -0.25
ALVFGPRTLHSRRTSPEWAK | < -0.25
ALVISGGELYNR | < -0.25
ALVTCHEGY | < -0.25
ALYELKGLQIVHMIRRHVST | < -0.25
AMCA | < -0.25
AMHRGEASWSYSDSIRPYEA | < -0.25
AMRGWSK | < -0.252
AMWL | < -0.25
AMYDRFRRRSGQSAR | < -0.25
ANEGTPAA | < -0.25
ANGAPK | < -0.25
ANGKNGGGKGDSRAHASSTG | < -0.25
ANGPNHYQSTNERTSNVYDV | < -0.25
ANGSRYSVTVFSELRYIKPS | < -0.25
ANIILSDLMGMLYACTVSVH | < -0.25
ANIRLTGLKQFS | -0.246
ANKAIMSFPGFLSARWSI | < -0.25
ANLPLCISELIKATQGGHGH | < -0.25
ANLPQYT | < -0.25
ANLSHSDLLPCLSFQNLASR | < -0.25
ANLSLPLVVELVKEHF | < -0.25
ANRLCSIGKRVYTPRTR | < -0.25

Substance | growth estimate
ANRSRRAMDLVWSASSQRQP | < -0.25
ANSAVEVSEFGPVSLTEG | < -0.25
ANSQGRQSSMSGRGKARE | < -0.25
ANYFARYFFSTGGS | < -0.25
APAV | < -0.25
APCGGWK | < -0.25
APDWFGLRCRPLWITVPYGA | < -0.25
APERSY | < -0.25
APGELATSERHVPFLR | < -0.25
APGTSFGVGILIYPTDMPSR | < -0.25
APHAPKFLREADSIHSI | < -0.25
APHDGGPRSNEQYLDLVALE | < -0.25
APIQT | < -0.25
APIVTLTSGPRGLTSSLRRG | < -0.25
APLGGPTACLAHSDVQFVMF | < -0.25
APNIVKSESGRMRFKSGYTI | < -0.25
APNSPYAPSALGTAGMESHA | < -0.25
APPGNVRRRIGWVQHERGPL | < -0.25
APPQLFHWGQSNIESANCRH | < -0.25
APPSALQERVGLSM | < -0.25
APQGGLGCMPLRVPDGAKRA | < -0.25
APQTLRVLSNQ | < -0.25
APRGAGVRHQETGSPDMESS | < -0.25
APRICLSKKVLLGILEWSFS | < -0.25

Substance | growth estimate
APRRLLACSGNHIECRWFCA | < -0.25
APRVRRWALV | < -0.25
APRWRWGSYASFHMTAMFRN | < -0.25
APSAGELGNYLTLRSLS | < -0.25
APTCARRNSISISGPSETRG | < -0.25
APVFAVAVFSILAGERRQCG | < -0.25
APVQGGNGHVTLP | < -0.25
APVSSLAVLSSSPRGSTAST | < -0.25
APWTDYADPFWCRAYPAYGE | -0.0476
APYGVGMS | < -0.25
AQASGRLGPAFASGIYCYNL | < -0.25
AQFRFVCSRVCRADGKEDRA | < -0.25
AQG | < -0.25
AQGLLLFPVPRNIVHRYAPL | < -0.25
AQGPHHIGSRESHCRTNTNL | < -0.25
AQGSSFLSSNRSDLTGGFCA | < -0.25
AQIREVVHKPQQVRHRPRKC | < -0.25
AQKFGLCGI | < -0.25
AQNGGLAELGANTVHRTPQA | < -0.25
AQQ | < -0.25
AQRKHTETIPGPGADPCTST | < -0.25
AQRLLGSSTIVQSGSAIHSV | < -0.25
AQRRSEPHLDLSSHTELRFG | < -0.25
AQSERELTVTVTVQTRLAQM | < -0.25

Not a retest: an excerpt of the list.
Substance | growth estimate
APTCARRNSISISGPSETRG | < -0.25
APVFAVAVFSILAGERRQCG | < -0.25
APVQGGNGHVTLP | < -0.25

Additional results:

Substance | growth estimate
AQSSCI | 0.181
AQTKEETVSSSRSAISRKPQ | < -0.25
AQTPGKCPKSRQRLLN | < -0.25
AQWYPPRDHSWTPTGLGSPD | < -0.25
AQYAPTIAIWF | < -0.25
ARAHERRTTDLLWRCT | < -0.25
ARAPRRPLDLEIQDEAACRQ | < -0.25
ARCGLQSAVSIALVV | < -0.25
ARCISKPY | < -0.25
ARCTFTRMEVT | < -0.25
ARDKYIDALARGVLLYDERT | < -0.25
ARDSPIIGMYGLRSRYVKYP | < -0.25
ARETSADRFLPQVRVRGKHH | < -0.25
AREVAEQCGIQECSHSAAVV | < -0.25
ARF | < -0.25
ARG | < -0.25
ARGHIH | < -0.25
ARGIASIDVIYEANRTSAEP | < -0.25
ARGLFGM | -0.248
ARGSGAKR | < -0.25
ARGSGYAAARSRALGIPDGV | < -0.25
ARHGCSGWLILS | < -0.25
ARHN | < -0.25
ARIFVSLPYEQKINPHLVSA | < -0.25
